This note sets out measurements from US8501715B2, “Oxidized lipids and uses thereof in the treatment of inflammatory diseases and disorders” (Vascular Biogenics Ltd., priority 2003, dated 2013).

The data set has as its system TGF-β. Nature of the data set: TGF-β levels in Apo-E KO mice. In kind it is in vivo, mouse. Particulars: End.

Consider 2,5′-Aldehyde Lecithin Ether [ALLE], for which the TGF-β is, setting by setting: (i.p. immunization x4 every 2 weeks (ALLE 150 μg/mouse coupled to PPD; PPD alone)) 12032 ± 2308 pmol/mL; (oral 10 μg/mouse L-ALLE+D-ALLE every other day for 5 days) 18010 ± 1373 pmol/mL; (oral 1 mg/mouse L-ALLE+D-ALLE every other day for 5 days) 13388 ± 1489 pmol/mL.
